Residue numbers refer to the chain shown, from its start. Construct, isoform or probe ends are uncertain for at least one entry. For some assays here: The comparison behind a weaker result is the experiment's own reference, which may not be listed here. For some assays here: Tags and fusion partners may be left off the protein sequences shown. For some assays here: At least one verdict rests on a figure or table, not on a statement of the authors. For some assays here: The direction of at least one scale is not stated here.
Key:
Experiment in all cases: BLI
[1] = target: T1, Caulobacter ParB-His6 (WT) (Caulobacter crescentus) (UniProt B8GW30); conditions: BLI at 22 C: 100 mM Tris-HCl pH 8.0, 100 mM NaCl, 1 mM MgCl2, 0.005% Tween 20, 1 uM protein dimer, recombinant protein, protein details: C-terminal His6
T1 sequence (looked up, limits assumed): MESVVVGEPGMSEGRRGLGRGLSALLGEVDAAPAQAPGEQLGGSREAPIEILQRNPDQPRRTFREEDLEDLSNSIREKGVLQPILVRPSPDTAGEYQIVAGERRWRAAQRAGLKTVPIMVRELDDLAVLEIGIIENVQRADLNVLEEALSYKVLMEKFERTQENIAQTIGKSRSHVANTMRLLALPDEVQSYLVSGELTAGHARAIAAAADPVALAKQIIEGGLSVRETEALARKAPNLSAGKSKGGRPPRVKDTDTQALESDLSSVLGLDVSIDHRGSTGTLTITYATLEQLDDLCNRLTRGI

Thermus ParB (Thermus) = conditions: 1 mM CTP (enhanced), Mg2+; BLI at 22 C: 100 mM Tris-HCl pH 8.0, 100 mM NaCl, 1 mM MgCl2, 0.005% Tween 20; 1 uM protein dimer; recombinant protein; protein details: N-terminal His6-MBP; label: biotin at both 5' ends
[2] = tested on: Rhodobacter ParB (Rhodobacter); conditions: 1 mM CTP (enhanced), Mg2+; BLI at 22 C: 100 mM Tris-HCl pH 8.0, 100 mM NaCl, 1 mM MgCl2, 0.005% Tween 20; 1 uM protein dimer; recombinant protein; protein details: N-terminal His6-MBP; label: biotin at both 5' ends
[3] = tested on: Sinorhizobium ParB (Sinorhizobium); conditions: 1 mM CTP (enhanced), Mg2+; BLI at 22 C: 100 mM Tris-HCl pH 8.0, 100 mM NaCl, 1 mM MgCl2, 0.005% Tween 20; 1 uM protein dimer; recombinant protein; protein details: N-terminal His6-MBP; label: biotin at both 5' ends
[4] = tested on: Psychrobacter ParB (Psychrobacter); conditions: 1 mM CTP (enhanced), Mg2+; BLI at 22 C: 100 mM Tris-HCl pH 8.0, 100 mM NaCl, 1 mM MgCl2, 0.005% Tween 20; 1 uM protein dimer; recombinant protein; protein details: N-terminal His6-MBP; label: biotin at both 5' ends
[5] = target: T2, Caulobacter ParB-His6 (R104A) (Caulobacter crescentus) (UniProt B8GW30); conditions: BLI at 22 C: 100 mM Tris-HCl pH 8.0, 100 mM NaCl, 1 mM MgCl2, 0.005% Tween 20, 1 uM protein dimer, recombinant protein, protein details: C-terminal His6, label: biotin at both 5' ends
T2 sequence (looked up, limits assumed): T1 sequence (looked up, limits assumed) with R104A

[6] = tested on: Dechloromonas ParB (Dechloromonas); conditions: 1 mM CTP (enhanced), Mg2+; BLI at 22 C: 100 mM Tris-HCl pH 8.0, 100 mM NaCl, 1 mM MgCl2, 0.005% Tween 20; 1 uM protein dimer; recombinant protein; protein details: N-terminal His6-MBP; label: biotin at both 5' ends
[7] = tested on: Zymomonas mobilis ParB (Zymomonas mobilis); conditions: 0.01 mM CTP (enhanced), Mg2+; BLI at 22 C: 100 mM Tris-HCl pH 8.0, 100 mM NaCl, 1 mM MgCl2, 0.005% Tween 20; 1 uM protein dimer; recombinant protein; protein details: N-terminal His6-MBP; label: biotin at both 5' ends

Does “CGCCAGGGTTTTCCCAGTCACGACGTTGTAAAACGACGGCCAGAATTCGCAACGTGTGTTTCACGTGAAACAGCCTTGAACTGATAACGACTCTATCATTGATAGAGTGTTCTCTCCACGGGATCCCCAGGCATGCAAGCTTGGCGTAATCATGGTCATAGCTGTTTCCT (double strand) [170 bp parS-tetO closed DNA]” bind ([1]; 1 mM CTP + 1 uM TetR roadblock, regained with 3 uM ahTc, label: biotin at both 5' ends)?
Result: binds more weakly

Does “CGCCAGGGTTTTCCCAGTCACGACGTTGTAAAACGACGGCCAGTGAATTCGAGCTCGGTACCCGCAGGAGGACGTAGGGTAGGGGGATGTTTCACGTGAAACAGGGGATCCTCTAGAGTCGACCTGCAGGCATGCAAGCTTGGCGTAATCATGGTCATAGCTGTTTCCT (double strand) [169 bp parS closed DNA]” bind (Thermus ParB (Thermus))?
Result: binds

Does “CGCCAGGGTTTTCCCAGTCACGACGTTGTAAAACGACGGCCAGTGAATTCGAGCTCGGTACCCGCAGGAGGACGTAGGGTAGGGGGATGTTTCACGTGAAACAGGGGATCCTCTAGAGTCGACCTGCAGGCATGCAAGCTTGGCGTAATCATGGTCATAGCTGTTTCCT (double strand) [169 bp parS closed DNA]” bind [2]?
Result: binds

Does “CGCCAGGGTTTTCCCAGTCACGACGTTGTAAAACGACGGCCAGTGAATTCGAGCTCGGTACCCGCAGGAGGACGTAGGGTAGGGGGATGTTTCACGTGAAACAGGGGATCCTCTAGAGTCGACCTGCAGGCATGCAAGCTTGGCGTAATCATGGTCATAGCTGTTTCCT (double strand) [169 bp parS closed DNA]” bind [3]?
Result: binds

Does “CGCCAGGGTTTTCCCAGTCACGACGTTGTAAAACGACGGCCAGTGAATTCGAGCTCGGTACCCGCAGGAGGACGTAGGGTAGGGGGATGTTTCACGTGAAACAGGGGATCCTCTAGAGTCGACCTGCAGGCATGCAAGCTTGGCGTAATCATGGTCATAGCTGTTTCCT (double strand) [169 bp parS closed DNA]” bind [4]?
Result: binds

Does “CGCCAGGGTTTTCCCAGTCACGACGTTGTAAAACGACGGCCAGTGAATTCGAGCTCGGTACCCGCAGGAGGACGTAGGGTAGGGGGATGTTTCACGTGAAACAGGGGATCCTCTAGAGTCGACCTGCAGGCATGCAAGCTTGGCGTAATCATGGTCATAGCTGTTTCCT (double strand) [169 bp parS closed DNA]” bind ([5]; 1 mM CTP, Mg2+)?
Result: binds more weakly

Does “CGCCAGGGTTTTCCCAGTCACGACGTTGTAAAACGACGGCCAGTGAATTCGAGCTCGGTACCCGCAGGAGGACGTAGGGTAGGGGGATGTTTCACGTGAAACAGGGGATCCTCTAGAGTCGACCTGCAGGCATGCAAGCTTGGCGTAATCATGGTCATAGCTGTTTCCT (double strand) [169 bp parS closed DNA]” bind ([5]; no NTP, described as nucleation-competent)?
Result: binds

Does “CGCCAGGGTTTTCCCAGTCACGACGTTGTAAAACGACGGCCAGTGAATTCGAGCTCGGTACCCGCAGGAGGACGTAGGGTAGGGGGATGTTTCACGTGAAACAGGGGATCCTCTAGAGTCGACCTGCAGGCATGCAAGCTTGGCGTAATCATGGTCATAGCTGTTTCCT (double strand) [169 bp parS closed DNA]” bind [6]?
Result: binds

Does “CGCCAGGGTTTTCCCAGTCACGACGTTGTAAAACGACGGCCAGTGAATTCGAGCTCGGTACCCGCAGGAGGACGTAGGGTAGGGGGATGTTTCACGTGAAACAGGGGATCCTCTAGAGTCGACCTGCAGGCATGCAAGCTTGGCGTAATCATGGTCATAGCTGTTTCCT (double strand) [169 bp parS closed DNA]” bind [7]?
Result: binds

Does “GGGATGTTTCACGTGAAACA (double strand) [20 bp parS]” bind ([1]; 1 mM CTP, Mg2+, label: 5' biotin on strand 1)?
Result: binds more weakly

And the binding signal (fold faster dissociation vs buffer only) ([1]; dissociation in 1 mM CTP, Mg2+, label: 5' biotin on strand 1)?
The binding signal (fold faster dissociation vs buffer only) was 7.

Source: PMC7053999, “ParB spreading on DNA requires cytidine triphosphate in vitro” (eLife, 2020)
